No constants are given. Whether binding was seen depends on the method and setting. Some entries that bind do so weakly or less than the wild type.
How the values were obtained:
[1] = target: PRP40 pre-mRNA processing factor 40 B (PRPF40B) (human) (UniProt Q6NWY9); experiment: peptide or protein array; isolated IE1 incubated 1 h at room temperature with two 22 cm x 22 cm PVDF membranes (imaGenes Unipex_1, _2) presenting up to 7390 GST-tagged human proteins from crude E. coli extracts, each spotted in doublets; anti-IE1 antibody 24 h at 4 °C, HRP-coupled secondary antibody, enhanced chemiluminescence; cutoffs by the background index; only the binder purified
[2] = target: T1, PR domain containing 8 (PRDM8) (human) (UniProt Q9NQV8); experiment: peptide or protein array; only the binder purified
T1 sequence: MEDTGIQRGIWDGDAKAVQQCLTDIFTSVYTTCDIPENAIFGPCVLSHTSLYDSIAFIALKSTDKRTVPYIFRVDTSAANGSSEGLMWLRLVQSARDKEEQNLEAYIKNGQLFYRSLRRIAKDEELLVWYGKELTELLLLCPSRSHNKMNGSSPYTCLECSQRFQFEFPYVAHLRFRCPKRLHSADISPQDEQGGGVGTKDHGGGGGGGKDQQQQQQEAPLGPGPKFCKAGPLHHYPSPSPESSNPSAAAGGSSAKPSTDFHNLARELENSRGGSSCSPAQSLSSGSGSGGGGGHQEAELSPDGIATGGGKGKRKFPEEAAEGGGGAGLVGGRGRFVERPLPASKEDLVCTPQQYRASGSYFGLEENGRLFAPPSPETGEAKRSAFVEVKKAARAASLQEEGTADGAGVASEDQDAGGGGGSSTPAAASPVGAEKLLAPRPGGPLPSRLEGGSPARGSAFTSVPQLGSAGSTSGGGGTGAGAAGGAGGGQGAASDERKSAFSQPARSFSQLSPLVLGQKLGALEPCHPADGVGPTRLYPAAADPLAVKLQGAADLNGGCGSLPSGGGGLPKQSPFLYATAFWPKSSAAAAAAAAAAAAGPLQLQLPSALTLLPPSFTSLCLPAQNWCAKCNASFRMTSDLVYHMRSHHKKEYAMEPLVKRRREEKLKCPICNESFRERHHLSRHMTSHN

Protein sequences, listed by entry. Tags and fused reporters are not part of them. Lines headed by an entry give the natural chain unless they say otherwise; changes in a name come on top. Chains listed by the source or under a name are the forms on record and can include a tag or linker.
PRP40 pre-mRNA processing factor 40 B (PRPF40B) (Q6NWY9, form named): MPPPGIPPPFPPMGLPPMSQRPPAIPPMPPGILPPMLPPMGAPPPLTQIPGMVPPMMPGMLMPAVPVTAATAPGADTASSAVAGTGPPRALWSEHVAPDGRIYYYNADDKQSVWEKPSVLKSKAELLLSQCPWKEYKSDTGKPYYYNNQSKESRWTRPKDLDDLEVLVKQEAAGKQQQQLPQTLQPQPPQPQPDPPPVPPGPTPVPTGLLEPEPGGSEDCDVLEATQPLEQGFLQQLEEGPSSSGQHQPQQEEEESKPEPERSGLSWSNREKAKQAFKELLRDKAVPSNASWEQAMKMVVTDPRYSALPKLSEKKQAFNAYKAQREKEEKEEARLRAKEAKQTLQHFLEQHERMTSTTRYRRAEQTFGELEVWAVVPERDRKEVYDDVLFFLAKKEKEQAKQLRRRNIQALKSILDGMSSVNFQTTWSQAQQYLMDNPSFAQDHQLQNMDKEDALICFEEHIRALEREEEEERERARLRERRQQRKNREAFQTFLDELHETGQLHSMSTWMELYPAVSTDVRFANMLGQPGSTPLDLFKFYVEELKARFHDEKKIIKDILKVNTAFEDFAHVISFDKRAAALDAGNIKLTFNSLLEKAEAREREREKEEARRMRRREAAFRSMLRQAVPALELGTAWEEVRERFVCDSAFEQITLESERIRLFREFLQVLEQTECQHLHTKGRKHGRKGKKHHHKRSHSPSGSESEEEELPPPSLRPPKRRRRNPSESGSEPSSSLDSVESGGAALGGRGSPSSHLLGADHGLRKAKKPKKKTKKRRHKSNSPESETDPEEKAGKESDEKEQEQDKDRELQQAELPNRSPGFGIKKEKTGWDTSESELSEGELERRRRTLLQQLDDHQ
UniProt P98175: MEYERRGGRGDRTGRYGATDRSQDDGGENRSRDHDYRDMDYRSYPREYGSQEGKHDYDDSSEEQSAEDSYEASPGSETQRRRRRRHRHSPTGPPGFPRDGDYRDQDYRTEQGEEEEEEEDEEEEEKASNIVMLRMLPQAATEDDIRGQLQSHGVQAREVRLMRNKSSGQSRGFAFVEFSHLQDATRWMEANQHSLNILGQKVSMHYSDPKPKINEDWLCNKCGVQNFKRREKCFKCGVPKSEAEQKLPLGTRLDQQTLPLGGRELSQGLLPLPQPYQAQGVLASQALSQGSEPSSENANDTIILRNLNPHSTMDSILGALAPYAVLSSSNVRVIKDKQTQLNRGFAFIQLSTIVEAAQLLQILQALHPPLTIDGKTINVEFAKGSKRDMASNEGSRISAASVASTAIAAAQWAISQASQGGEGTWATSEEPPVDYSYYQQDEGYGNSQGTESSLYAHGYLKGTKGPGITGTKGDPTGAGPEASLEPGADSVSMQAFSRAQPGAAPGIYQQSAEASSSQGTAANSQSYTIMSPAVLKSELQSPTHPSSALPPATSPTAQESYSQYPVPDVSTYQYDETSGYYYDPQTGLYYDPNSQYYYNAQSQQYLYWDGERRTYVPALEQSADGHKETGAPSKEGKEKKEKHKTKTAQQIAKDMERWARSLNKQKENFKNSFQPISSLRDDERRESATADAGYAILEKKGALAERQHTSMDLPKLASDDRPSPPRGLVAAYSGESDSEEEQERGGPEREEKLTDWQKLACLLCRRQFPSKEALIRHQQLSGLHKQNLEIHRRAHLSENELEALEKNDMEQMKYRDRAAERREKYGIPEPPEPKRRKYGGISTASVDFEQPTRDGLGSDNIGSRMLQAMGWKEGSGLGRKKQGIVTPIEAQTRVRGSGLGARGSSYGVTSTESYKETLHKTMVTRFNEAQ
UniProt P13202: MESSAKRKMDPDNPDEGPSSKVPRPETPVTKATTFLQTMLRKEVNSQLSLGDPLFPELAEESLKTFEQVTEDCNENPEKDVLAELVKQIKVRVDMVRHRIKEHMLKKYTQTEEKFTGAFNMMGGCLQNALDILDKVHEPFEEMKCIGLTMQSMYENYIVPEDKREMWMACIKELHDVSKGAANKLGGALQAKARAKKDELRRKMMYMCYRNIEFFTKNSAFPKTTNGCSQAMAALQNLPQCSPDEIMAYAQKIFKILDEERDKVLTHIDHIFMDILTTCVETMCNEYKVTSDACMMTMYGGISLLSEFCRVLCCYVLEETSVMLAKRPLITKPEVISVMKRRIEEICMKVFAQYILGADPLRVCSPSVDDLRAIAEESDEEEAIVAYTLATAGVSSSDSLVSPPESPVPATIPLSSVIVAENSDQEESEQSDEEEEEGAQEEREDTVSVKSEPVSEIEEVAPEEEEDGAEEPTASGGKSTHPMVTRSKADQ

[3] = target: T2, OTU domain containing 1 (OTUD1) (human) (UniProt Q5VV17); experiment: peptide or protein array; only the binder purified
T2 sequence: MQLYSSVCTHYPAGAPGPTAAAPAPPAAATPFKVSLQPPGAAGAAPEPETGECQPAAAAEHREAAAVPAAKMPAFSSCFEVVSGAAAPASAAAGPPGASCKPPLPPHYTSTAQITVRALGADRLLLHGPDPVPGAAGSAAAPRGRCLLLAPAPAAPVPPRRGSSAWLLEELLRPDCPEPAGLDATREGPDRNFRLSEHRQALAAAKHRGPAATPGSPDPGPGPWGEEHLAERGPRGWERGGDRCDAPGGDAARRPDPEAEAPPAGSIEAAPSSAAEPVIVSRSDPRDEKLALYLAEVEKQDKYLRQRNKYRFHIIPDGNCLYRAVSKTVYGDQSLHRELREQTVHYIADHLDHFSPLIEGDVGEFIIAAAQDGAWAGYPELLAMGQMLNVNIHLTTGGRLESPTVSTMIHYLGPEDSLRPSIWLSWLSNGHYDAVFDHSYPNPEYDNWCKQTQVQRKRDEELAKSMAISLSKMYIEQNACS

[4] = target: T3, Ring finger protein 10 (RNF10) (human) (UniProt Q8N5U6); experiment: peptide or protein array; only the binder purified
T3 sequence: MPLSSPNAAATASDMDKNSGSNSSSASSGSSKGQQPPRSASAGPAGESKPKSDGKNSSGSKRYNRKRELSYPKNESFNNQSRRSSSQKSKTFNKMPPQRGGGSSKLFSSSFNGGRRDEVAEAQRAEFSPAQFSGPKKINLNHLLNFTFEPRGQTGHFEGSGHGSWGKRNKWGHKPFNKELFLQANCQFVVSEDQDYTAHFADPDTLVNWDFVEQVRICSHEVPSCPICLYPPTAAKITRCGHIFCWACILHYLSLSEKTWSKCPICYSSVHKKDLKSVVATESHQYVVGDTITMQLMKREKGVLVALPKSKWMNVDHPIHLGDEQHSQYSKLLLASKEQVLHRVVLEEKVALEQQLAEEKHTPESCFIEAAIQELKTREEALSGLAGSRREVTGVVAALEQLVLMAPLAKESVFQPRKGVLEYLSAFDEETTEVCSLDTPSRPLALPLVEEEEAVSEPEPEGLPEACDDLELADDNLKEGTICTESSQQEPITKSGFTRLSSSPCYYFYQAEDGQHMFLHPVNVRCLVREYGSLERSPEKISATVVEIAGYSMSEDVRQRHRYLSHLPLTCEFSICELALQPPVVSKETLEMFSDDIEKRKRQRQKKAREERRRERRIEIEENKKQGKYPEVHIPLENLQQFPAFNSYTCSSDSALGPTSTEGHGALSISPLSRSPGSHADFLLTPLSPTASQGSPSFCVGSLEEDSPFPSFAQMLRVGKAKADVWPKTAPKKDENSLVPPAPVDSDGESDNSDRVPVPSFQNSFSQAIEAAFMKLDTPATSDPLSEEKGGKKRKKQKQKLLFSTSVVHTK

[5] = target: T4, Breast carcinoma amplified sequence 2 (human) (UniProt O75934); experiment: peptide or protein array; only the binder purified
T4 sequence: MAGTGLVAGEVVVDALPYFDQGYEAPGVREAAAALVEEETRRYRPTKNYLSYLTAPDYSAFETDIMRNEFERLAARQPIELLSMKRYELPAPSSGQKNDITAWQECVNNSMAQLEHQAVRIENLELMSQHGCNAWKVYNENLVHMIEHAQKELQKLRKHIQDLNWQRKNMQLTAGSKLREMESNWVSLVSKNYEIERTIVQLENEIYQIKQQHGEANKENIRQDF

[6] = target: Sequestosome 1 (human) (UniProt Q13501); experiment: peptide or protein array; only the binder purified
[7] = target: RNA binding motif protein 10 (RBM10) (human) (UniProt P98175); experiment: peptide or protein array; only the binder purified

Measured: binding

Human cytomegalovirus immediate-early protein 1 (from UniProt P13202 1-491)
binds: all assays above

From paper PMC3917433
